From patent publication EP1826280A2 (priority 1992, dated 1994)

Test system: vascular smooth muscle cells
Experiment: 24 hour 3H-leucine protein inhibition and 3H-thymidine DNA synthesis inhibition assays
Format: cell-based
Details: 24 hour exposure; in the presence of 5% FBS
Method: The ability of various therapeutic agents to inhibit DNA synthesis and protein synthesis in vascular smooth muscle cells was tested. ^3H-leucine and ^3H-thymidine uptake and cytotoxicity assays were conducted in accordance with the following protocols.
^3H-leucine uptake: Vascular smooth muscle cells at 40,000 cells/ml were seeded in sterile 24 well plates at 1ml/well. The plates were incubated overnight at 37°C, 5% CO2, 95% air in a humidified atmosphere (saturation). Log dilutions of the therapeutic agent of interest were incubated with the vascular smooth muscle cells for 5 minutes or 24 hours. […] Vials were counted on a Beckman LS2600 Liquid scintillation Counter interfaced with Beckman "Data Capture" software for conversion to a Lotus 1-2-3® file and analysis using Lotus 1-2-3®.
^3H-thymidine uptake: Vascular smooth muscle cells were incubated in complete media with 5% FBS (Gibco) overnight at 37°C in a humidified, 5% CO2 environment in sterile 24 well plates. […] The cells were visually scored for viability and cell number. […] Vials were counted on a Beckman LS2800 Liquid Scintillation counter interfaced with Beckman "Data Capture" software for conversion to a Lotus 1-2-3® file and analysis using Lotus 1-2-3®.

CN[C@@H]1C[C@H]2O[C@@](C)([C@@H]1OC)n1c3ccccc3c3c4c(c5c6ccccc6n2c5c31)C(=O)NC4 [staurosporin] was tested, and the “inhibition of DNA synthesis compared with protein synthesis” value was “to a greater extent than they inhibited protein synthesis”.
